Test results from US20230302124A1.
These are yes or no findings as the source states them, for the method shown. Some entries that bind do so weakly or less than the wild type.

Legend:
[1] = molecular target: T1, CsoS4A-SII (Halothiobacillus neapolitanus); experiment: co-expression in E. coli, Strep-Tactin purification through CsoS4A-SII, anion exchange, TEM
T1 sequence: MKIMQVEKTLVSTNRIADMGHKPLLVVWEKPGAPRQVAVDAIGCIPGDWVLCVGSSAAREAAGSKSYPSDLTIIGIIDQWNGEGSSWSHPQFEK

[2] = molecular target: T1, CsoS4A-SII (Halothiobacillus neapolitanus); experiment: cryo-EM model of the purified shells

B1: CsoS1A (protein)
chain: MADVTGIALGMIETRGLVPAIEAADAMTKAAEVRLVGRQFVGGGYVTVLVRGETGAVNAAVRAGADACERVGDGLVAAHIIARVHSEVENILPKAPQA
Question: For B1, which binding [1] is on record?
Answer: binds

Question: And the binding [2]?
Answer: binds
